Measurements reported in PubChem BioAssay AID1508600 (Functional Genomics Laboratory (NCATS/FGL), 2020).
The campaign covered roughly 53,000 sequences. About 3,700 (7%) were called active.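 The calls were made as follows: active = gene knockdowns whose robust z-score for IL-1 alpha signal is at least 2 or at most -2, so actives lie on both sides; inactive = the rest.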 The list shows a part of the results.

test: Components of the Cytosolic LPS Sensing Pathway: Gene Identification via Genome-wide siRNA Screen; details: RAW264.7 macrophages, IL-1a HTRF, actives lie on both sides, screened at 100 nM (by protocol), cells primed 5 h with Pam3CSK4 first;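 also: robust z of the log signal after scaling to non-targeting control siRNA wells of the plate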
Method in brief: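 Supernatant IL-1a by HTRF from RAW264.7 cells primed with Pam3CSK4 (5 hours) and transfected with LipidA (24 hour) after 48h siRNA knockdown at 100 nM; cell viability checked with CellTiter-Glo.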

| Sequence | z-score |
| --- | --- |
| GGAGGAAUUUCUUAAGCUUTT against Ivns1abp | inactive: 0.988 |
| GGAAUCAGUUAAAGAGAUCTT against Bbs5 | inactive: -1.37 |
| GGUUUACAGCACCAAGAUCTT against Itih3 | inactive: -0.625 |
| GGUGGACAAGCAAGUCUAGTT against Ube2o | inactive: 1.97 |
| GGAGAUUUUGGAAAAAGCATT against Setd3 | inactive: 0.351 |
| GGAAAACUUGAGGCGGAUCTT against Enkd1 | active: 2.63 |
| GGCAAAAGACACUGUCAAUTT against Naip3 | inactive: -0.897 |
| UGCCUGUAAACCAACAAGGTT against Prb1 | active: -2.04 |
| GGACCAUUUUCAAUACUCUTT against Rps6kl1 | inactive: -1.16 |
| GCUUCUAUUUCAUCUUUGUTT against Krtap4-7 | inactive: -0.0385 |
| GCAUGUAUGGGCUGUUCAUTT against Olfr642 | inactive: 1.3 |
| GGAGAGUAUGUACUCACAUTT against Sh2b3 | inactive: 0.224 |
| CCUAAAAAGAGGAAAAGGGTT against Psg29 | inactive: -0.254 |
| GGAAAGCCCUCCGAAGUUUTT against Wsb2 | inactive: -0.0582 |
| CGCAUCUUAUCUUUCCUAATT against Ngly1 | inactive: 0.324 |
| CGAUUCAAUGUACCUGUAATT against Sarnp | inactive: -0.921 |
| GGAUUCUUUCCCUUUGUGCTT against Bicdl2 | inactive: 0.101 |
| GGAUUUGUAAAUUACCUGGTT against Clec4d | inactive: 0.544 |
| CCAGAAACUAGCCUACUACTT against Vgll2 | inactive: 0.395 |
| GGACUUCGAAAGUUUAUCCTT against Ttc41 | inactive: -1.76 |
| CCUGGAAUAGACUGAAUUATT against Fam20b | inactive: 0.73 |
| GCUGAUGAGUGGCUAUCAGTT against Coro6 | inactive: -1.19 |

Reprinted from the results shown for reference:

| Sequence | z-score |
| --- | --- |
| CGAUUCAAUGUACCUGUAATT against Sarnp | inactive: -0.921 |
| GGAUUCUUUCCCUUUGUGCTT against Bicdl2 | inactive: 0.101 |
| GGAUUUGUAAAUUACCUGGTT against Clec4d | inactive: 0.544 |
| CCAGAAACUAGCCUACUACTT against Vgll2 | inactive: 0.395 |
| GGACUUCGAAAGUUUAUCCTT against Ttc41 | inactive: -1.76 |

(further entries)

| Sequence | z-score |
| --- | --- |
| UAGGAAUUGGCUUCUACCUTT against Tdpoz2 | inactive: -0.818 |
| CGUGCUGUGCCUUCUGAGUTT against Gtf2e2 | inactive: 0.913 |
| GGGCAAAUUAGAGACCAAGTT against Nwd2 | inactive: 0.692 |
| GGCGGCUUUAGACAAGUAATT against Mrpl13 | inactive: -0.331 |
| GCAUUAGUGGCAGAACUUUTT against Gcsam | inactive: 1.42 |
| GGACUUGAUGACAGUGAAUTT against Strada | active: -2.27 |
| GCUUCGACACUUUAUUUCUTT against Cnp | inactive: 0.26 |
| CCACUUUAAGACUGACUGUTT against Tnfrsf25 | inactive: 1.57 |
| CCUACAUGGGCAUCAUUAGTT against Tfpi2 | inactive: -0.182 |
| GGCCGAAUCACAGAAACUCTT against Mrps18a | inactive: 1.87 |
| GUUUCUGGAGACGGUGGAGTT against Rpl10a | inactive: 1.74 |
| GCGAAACUUCCAGAUCUAGTT against Cnot11 | active: 2.14 |
| GGAGAUUGCUAAUAGCUGUTT against Cldn15 | inactive: 0.723 |
| CCUAUAUAAACACUCGAAATT against Zbtb5 | inactive: 0.0409 |
| GGAGUAAAUUGAGAAACCATT against Acsm5 | inactive: -0.149 |
| GGCAGACAUCACAAUGGCUTT against Hemgn | inactive: -0.201 |
| GCAAAUUUAAGAGAAGUUGTT against Dse | inactive: -0.132 |
| CCUUUCCAUCCCAGAAAAATT against Gm11437 | inactive: -0.0413 |
| GGGUCACUUUAUGCAUCUUTT against Fam168a | inactive: -1.37 |
| GGAGUCCUAAAGAGUUCUATT against Slc11a1 | inactive: 0.723 |
| GGUAAAGGAUGCUUUUAAGTT against Olfr801 | inactive: 0.99 |
| GGUUACAAAUGAUUGUUCATT against Phxr2 | inactive: 1.05 |

| Sequence | z-score |
| --- | --- |
| GGUGGUGAAUAUGAUGAUATT against Tsr1 | inactive: -0.712 |
| GCGGUUUCUUCGAGAAACUTT against Mau2 | inactive: -1.03 |
| GGAUGUGACCCACUUUAUATT against Zhx3 | inactive: 1.01 |
| GGUGACUUUCUGAAACUCCTT against Hoxa5 | inactive: -1.75 |
| GGCCUUCAACAUUGACCGATT against Kcnc4 | inactive: 0.166 |
| GGGUCUGCGUGACAAUUACTT against 4930542C12Rik | inactive: 1.21 |
| GGCUGAAGUUAACAGUAAGTT against Gprasp1 | inactive: 0.473 |
| GGAGAAAAAGUUACGUCGATT against Stk38l | inactive: 0.866 |
| GCAAGCAAACUGGAGUUGATT against Trim68 | inactive: 0.277 |
| GGGCUACAUUCCUUCCAAUTT against Frk | active: 5.59 |
| GGCCUCAUGAAGAACCUUCTT against Pparg | inactive: -1.27 |
| GGACGAUCUAGCAUUCAUGTT against Fat3 | inactive: 0.349 |
| GGUUGUGACUUCUCAUUUUTT against Ccnb1 | inactive: -0.0479 |
| GGCCCACCUAUUUCAUCUCTT against Actl7b | inactive: -0.634 |
| GGAAGAUAAUGGGAAUUUCTT against Acp2 | inactive: -0.424 |
| GGUUUAAUAGACGACAAUGTT against Ube2g1 | inactive: -1.39 |
| GCUGGUAUACAGAAUAAACTT against Mfn1 | inactive: 0.468 |
| GCAUGAAUUCAAAUUGCCATT against Adgrl4 | inactive: -0.981 |
| GGAGUUACCUGGAUAUUAUTT against Car8 | inactive: -0.499 |
| GGGACACCAAGUUUUCCAUTT against Paqr7 | inactive: 1.63 |
| GGAAGUUUCCCAUCAGUGATT against Cryab | inactive: -0.486 |
| CGGUGCAGAUGUCGACGAUTT against Znrd2 | inactive: 0.494 |

| Sequence | z-score |
| --- | --- |
| GGGUGACCUUUUGUUUUUATT against Cfl2 | inactive: 1.36 |
| GGGCCUUACGUCAUUCUCUTT against Dnajb7 | inactive: -0.319 |
| GGAUGAACAACAAUCAAACTT against Btrc | inactive: 0.704 |
| GGUAAGUCCUAACAAACAATT against Nxph2 | inactive: 0.226 |
| GGACAAGCAAGAAGGAAUUTT against Polr2j | active: -2.43 |
| GGUAGAAGUGAAAAAGAUATT against Bhmt | inactive: -0.386 |
| GCUAUCUAAGCAAAAGAGATT against Iftap | inactive: 1.69 |
| GCUUAUAAAAGUGAAUCGGTT against Chmp2b | inactive: 0.501 |
| GGCAGUGGAGUGUAUGGAUTT against Popdc2 | inactive: -0.531 |
| GGACAGAAUGGAAAUUCUUTT against Efna2 | inactive: -0.275 |
| GGGCAAAUUCUCAAGAAAATT against Tbc1d9 | inactive: 0.614 |
| CCUACUAGUGCAUUUGUAATT against Gabarapl2 | inactive: -0.0741 |
| CCCAGGUUGACAAGAACUCTT against Socs7 | inactive: -0.0474 |
| GGUAACGAUGCUGGAAUUCTT against Sdcbp | active: 4.37 |
| CGUAAGUGGACGACGGUUCTT against Kcnd3 | inactive: 0.106 |
| GGUGAAAAUAAUAGAGCGGTT against Maats1 | inactive: 1.21 |
| GGAAGAAGAUGGAGAUAAATT against Neurod4 | inactive: 0.665 |
| GGAUAGUCAGAAAUGGAAATT against Chmp4c | inactive: -0.43 |
| CCGUCACUAUACCCAAGUUTT against Olfr802 | inactive: -0.582 |
| GGGUCAUCCUCUAUGCAGUTT against Taar6 | inactive: -0.266 |
| GGACACAAUACCACUGACCTT against Mapk1ip1 | inactive: -0.415 |
| GCCAACCUACUGAGUCUCATT against Ccdc12 | inactive: -0.657 |

| Sequence | z-score |
| --- | --- |
| GGCCAUGAAUAUGGAGUCCTT against Cptp | inactive: 0.623 |
| GGGAACAGAAGUUGUGAGATT against Gulp1 | inactive: 1.5 |
| CGUGGAAGCUGUGUUAUCUTT against Il34 | inactive: -0.112 |
| GGUGUUACAGAUGUACCGATT against Nfkbid | inactive: 0.0859 |
| GGCUCUGAGAUCUAUGAAATT against Dop1b | inactive: -0.953 |
| GCACAAUUAUGAGAGUGCATT against Grin1 | inactive: -0.91 |
| GGUUUUGGAGAGAAUUGCCTT against Cog2 | inactive: -0.468 |
| CCACUGAUGACAUGACUCUTT against Vmn1r178 | inactive: 1.59 |
| GGGCUAGUUUCUUUUUUUGTT against Nipal4 | inactive: -0.128 |
| GGUGCGUAACUUAUUUUUATT against Wdr77 | inactive: 1.45 |
| GCAGUGUUGUCAAAACUUGTT against Mtfmt | inactive: 1.54 |
| GGACUAUGUGGCCCAGUGUTT against Nat8f5 | inactive: -1.11 |
| GGGUUAAGUACAGAAGAUCTT against Cask | inactive: -1.41 |
| GCUACGAGCAGAUGAUGGATT against Spc24 | inactive: 0.254 |
| GGACUUAUCGGUUAUCUUUTT against Nap1l2 | inactive: 1.12 |
| GCUGUUGUGUGAGGUAACCTT against Lag3 | inactive: -1.98 |
| CCUGUUCUCUCACCAUCAUTT against Olfr1026 | inactive: -0.562 |
| UCUCCUUCAUUCCAUGUAUTT against Olfr441 | active: -2.18 |
| GCGGCCGAAAUUUAUGAGGTT against U2surp | inactive: 0.382 |

Some values from the entries so far:
Entry for CCACUUUAAGACUGACUGUTT against Tnfrsf25 under z-score: inactive: 1.57
Entry for CCGUCACUAUACCCAAGUUTT against Olfr802 under z-score: inactive: -0.582
